Values quoted from earlier work as cited in paper PMC8750630, “Novel Molecular Targets for Hepatocellular Carcinoma” (Cancers, 2021).

Conditions: interrogation of database, Table S6; ref HLA Ligand Atlas; cited from earlier work

Sequence | HLA Classes (identification by mass spectrometry in normal tissues)
RQYSVGFEV | no match
LYSGTAADF | no match
VYSACSFTF | no match
FYFRNHFCI | no match
VYVAFSEFF | no match
LYACGTGAF | no match
LLNQQICPV | no match
YYDVIYLSW | no match
FMLDLYNAL | no match
TMLNILALV | no match
YYYQRALEI | no match
IYTVSSFSI | no match
ALLALTSAV | no match
RIVCLFWGV | no match
TYFGSIVLL | no match
FQFSASLHV | no match
ALSNHLNAV | HLA-1
MVMSFVNLV | no match
KITEYLERV | HLA-1
VYTYIQSRF | HLA-1
IFNIIPSTF | no match
MLAGNEFQV | no match
LLNSLLDTV | no match
TLLKVTLEV | no match
VHMKDFFYF | no match
FLISIYQVL | no match
LYHAGTVLL | no match
ALFGALFLA | HLA-1
